Measurements from patent US20190367620A1.
No constants are given. Whether binding was seen depends on the method and setting. Some entries that bind do so weakly or less than the wild type.

Protein sequences, listed by entry. Tags and fused reporters are not part of them. Lines headed by an entry give the natural chain unless they say otherwise; changes in a name come on top. Residues count along the entry.
UniProt P11362: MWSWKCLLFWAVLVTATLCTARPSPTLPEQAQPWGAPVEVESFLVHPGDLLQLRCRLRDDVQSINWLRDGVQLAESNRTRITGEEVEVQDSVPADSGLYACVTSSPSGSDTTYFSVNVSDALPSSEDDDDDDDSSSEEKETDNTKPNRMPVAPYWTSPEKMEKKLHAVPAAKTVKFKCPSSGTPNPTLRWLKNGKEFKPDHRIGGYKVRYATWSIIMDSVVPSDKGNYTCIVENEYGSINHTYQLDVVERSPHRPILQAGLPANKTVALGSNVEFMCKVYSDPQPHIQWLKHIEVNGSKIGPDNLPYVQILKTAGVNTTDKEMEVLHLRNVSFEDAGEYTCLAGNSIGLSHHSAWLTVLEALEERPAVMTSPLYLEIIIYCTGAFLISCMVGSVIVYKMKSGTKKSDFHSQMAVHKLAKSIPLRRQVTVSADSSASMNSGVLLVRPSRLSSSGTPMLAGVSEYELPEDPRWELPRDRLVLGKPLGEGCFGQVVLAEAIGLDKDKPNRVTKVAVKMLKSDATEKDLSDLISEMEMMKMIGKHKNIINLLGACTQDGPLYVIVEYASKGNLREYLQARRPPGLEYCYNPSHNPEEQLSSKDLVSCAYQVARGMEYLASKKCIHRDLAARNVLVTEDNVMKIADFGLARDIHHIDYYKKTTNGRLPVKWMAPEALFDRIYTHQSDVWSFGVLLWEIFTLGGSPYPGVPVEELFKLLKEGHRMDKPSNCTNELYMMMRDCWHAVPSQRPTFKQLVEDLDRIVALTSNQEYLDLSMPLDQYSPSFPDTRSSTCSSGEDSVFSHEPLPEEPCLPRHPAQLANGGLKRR
UniProt P16092, residues 22-376: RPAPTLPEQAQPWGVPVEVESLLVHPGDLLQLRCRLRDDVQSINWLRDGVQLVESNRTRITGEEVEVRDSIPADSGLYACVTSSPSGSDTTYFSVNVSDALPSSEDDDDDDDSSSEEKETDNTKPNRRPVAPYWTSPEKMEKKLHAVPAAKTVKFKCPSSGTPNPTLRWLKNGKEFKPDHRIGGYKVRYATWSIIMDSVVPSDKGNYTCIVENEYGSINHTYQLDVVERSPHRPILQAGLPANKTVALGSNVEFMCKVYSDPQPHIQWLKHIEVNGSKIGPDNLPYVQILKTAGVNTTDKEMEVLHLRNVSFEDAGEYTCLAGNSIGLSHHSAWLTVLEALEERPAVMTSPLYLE

Experiments:
[1] = target: human FGFR1b-IIIb extracellular domain with a HIS tag (human); assay: ELISA, antibody titrated on huFGFR1b-IIIb, O.D. 450 nm [panel huFGFR1b-IIIb]
[2] = target: Human FGFR1 D2-His6 (human) (UniProt P11362); assay: ELISA, confirmed by SPR
[3] = target: human FGFR1b-IIIc extracellular domain with a HIS tag (human) (UniProt P11362); assay: SPR
[4] = target: human FGFR1b-IIIb extracellular domain with a HIS tag (human); assay: SPR
[5] = target: Human FGFR1 D2-His6 (human) (UniProt P11362); assay: ELISA, antibody titrated on FGFR1 Ig-D2, O.D. 450 nm [panel FGFR1 Ig-D2]
[6] = target: human FGFR1b-IIIc extracellular domain with a HIS tag (human) (UniProt P11362); assay: ELISA
[7] = target: Human FGFR1 D2-His6 (human) (UniProt P11362); assay: ELISA
[8] = target: human FGFR1b-IIIb extracellular domain with a HIS tag (human); assay: ELISA
muFGFR1a-IIIc (mouse) = muFGFR1a-IIIc (mouse) (UniProt P16092); assay: ELISA
[9] = target: human FGFR1b-IIIc extracellular domain with a HIS tag (human) (UniProt P11362); assay: selectivity column of Table 2
[10] = target: Human FGFR1 D2-His6 (human) (UniProt P11362); assay: selectivity column of Table 2
[11] = target: human FGFR1b-IIIb extracellular domain with a HIS tag (human); assay: selectivity column of Table 2
[12] = target: human FGFR1b-IIIc extracellular domain with a HIS tag (human) (UniProt P11362); assay: ELISA, antibody titrated on huFGFR1b-IIIc, O.D. 450 nm [panel huFGFR1b-IIIc]
[13] = target: human FGFR1b-IIIc extracellular domain with a HIS tag (human) (UniProt P11362); assay: ELISA, IgG1 format
[14] = target: human FGFR1b-IIIb extracellular domain with a HIS tag (human); assay: ELISA, IgG1 format
[15] = target: human FGFR1b-IIIc extracellular domain with a HIS tag (human) (UniProt P11362); assay: ELISA, EC50 from OD450 curves, IgG1 format
[16] = target: human FGFR1b-IIIb extracellular domain with a HIS tag (human); assay: ELISA, EC50 from OD450 curves, IgG1 format
[17] = target: human FGFR1b-IIIb extracellular domain with a HIS tag (human); assay: SPR (BIAcore), IgG format

Measured: binding

B1: mAb #A08 (antibody, V domains shown)
VH: EVQLQESGPGLVKPSGTLSLTCAVSGGSISSNNWWSWVRQPPGKGLEWIGEIYHSGSTSYNPSLKSRVTISVDKSKNQFSLKLNSVTAADTAVYYCARGTDWFDPWGQGTLVTVSS
VL: QAVLTQPPSVSVAPGQTARITCGGNNIGSESVHWYQQKPGQAPVLVVYDDSDRPSGIPERFSGSNSGNTATLTISRVEAGDEADYYCQVWDSTSDHRVFGGGTKLTVL
not listed: [13] | [14] | [15] | [16] | [17]
binds: all other assays above

B2: #A07 IgG1 (antibody, V domains shown)
VH: QVQLQESGPGLVKPSGTLSLTCAVSGGSISSNNWWSWVRQPPGKGLEWIGEIYHSGSTSYNPSLKSRVTISVDKSKNQFSLKLSSVTAADTAVYYCARGTDWYDPWGQGTLVTVSS
VL: SYVLTQPPSVSVAPGQTARITCGGNNIGSESVHWYQQKPGQAPVLVVYDDSDRPSGIPERFSGSNSGNTATLTISRVEAGDEADYYCQVWDSTSDHRVFGGGTKLTVLG
binds: [13] | [14] | [15] | [16]

B3: mAb #D01 IgG1 (antibody, V domains shown)
VH: QVQLQESGPGLVKPSGTLSLTCAVSGGSISSNNWWSWVRQPPGKGLEWIGEIYHSGSTSYNPSLKSRVTISVDKSKNQFSLKLSSVTAADTAVYYCARATDWFDHWGQGTLVTVSS
VL: SYVLTQPPSVSVAPGQTARITCGGNNIGSESVHWYQQKPGQAPVLVVYDDSDRPSGIPERFSGSNSGNTATLTISRVEAGDEADYYCQVWDSTSDHRVFGGGTKLTVLG
binds: [15] | [16]

B4: #D02 IgG (antibody, V domains shown)
VH: QVQLQESGPGLVKPSGTLSLTCAVSGGSISSNNWWSWVRQPPGKGLEWIGEIYHSGSTSYNPSLKSRVTISVDKSKNQFSLKLSSVTAADTAVYYCARGTDWIDTWGQGTLVTVSS
VL: SYVLTQPPSVSVAPGQTARITCGGNNIGSESVHWYQQKPGQAPVLVVYDDSDRPSGIPERFSGSNSGNTATLTISRVEAGDEADYYCQVWDSTSDHRVFGGGTKLTVLG
binds: [17] | [15] | [16]

B5: #G04 IgG (antibody, V domains shown)
VH: QVQLQESGPGLVKPSGTLSLTCAVSGGSISSNNWWSWVRQPPGKGLEWIGEIYHSGSTSYNPSLKSRVTISVDKSKNQFSLKLSSVTAADTAVYYCARGTDWYDLWGQGTLVTVSS
VL: SYVLTQPPSVSVAPGQTARITCGGNNIGSESVHWYQQKPGQAPVLVVYDDSDRPSGIPERFSGSNSGNTATLTISRVEAGDEADYYCQVWDSTSDHRVFGGGTKLTVLG
binds: [17] | [15] | [16]

B6: #B10 IgG1 (antibody, V domains shown)
VH: QVQLQESGPGLVKPSGTLSLTCAVSGGSISSNNWWSWVRQPPGKGLEWIGEIYHSGSTSYNPSLKSRVTISVDKSKNQFSLKLSSVTAADTAVYYCARATDWYDPWGQGTLVTVSS
VL: SYVLTQPPSVSVAPGQTARITCGGNNIGSESVHWYQQKPGQAPVLVVYDDSDRPSGIPERFSGSNSGNTATLTISRVEAGDEADYYCQVWDSTSDHRVFGGGTKLTVLG
binds: [13] | [14] | [15] | [16]
